Measurements reported in PubChem BioAssay AID686943 (Drosophila RNAi Screening Center, 2013)
Assay: 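Fly genes whose loss alters ERK activation after insulin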 (primary screen). System: Drosophila S2R+ haemocyte-like cells expressing YFP-tagged ERK (Rolled). Reagent: long dsRNA against Drosophila genes. Treatment: insulin stimulation versus unstimulated cells; dose and duration not given. Measurement: 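Antibody staining for doubly phosphorylated ERK divided by ERK-YFP signal, as plate z-scores, in insulin-treated and untreated cells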. Reading the numbers: replicate 1, z-score of dpERK with insulin and replicate 2, z-score of dpERK with insulin: higher = more active ERK per ERK-YFP after insulin.
In all, the deposit lists about 23,000 reagents; below is a random part of those with a known target gene and a result. 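Extra replicates exist only for a retested subset of genes; insulin dose and duration not given; both raised and lowered dpERK matter.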 Further read-outs or replicates are left out here. The record does not give: the amount of reagent, the time to read-out.

The first 2 entries as a preview:
{"gene": "Tbp (TATA binding protein)", "dsRNA": "DRSC04662", "replicate 1, z-score of dpERK with insulin": 2.1, "replicate 2, z-score of dpERK with insulin": 0.62}
{"gene": "hid (head involution defective)", "dsRNA": "DRSC11316", "replicate 1, z-score of dpERK with insulin": -0.13, "replicate 2, z-score of dpERK with insulin": -0.29}

The list itself, from the first entry:
{"gene": "Tbp (TATA binding protein)", "dsRNA": "DRSC04662", "replicate 1, z-score of dpERK with insulin": 2.1, "replicate 2, z-score of dpERK with insulin": 0.62}
{"gene": "hid (head involution defective)", "dsRNA": "DRSC11316", "replicate 1, z-score of dpERK with insulin": -0.13, "replicate 2, z-score of dpERK with insulin": -0.29}
{"gene": "TwdlY (TweedleY)", "dsRNA": "DRSC19153", "replicate 1, z-score of dpERK with insulin": -0.25, "replicate 2, z-score of dpERK with insulin": 0.88}
{"gene": "Nepl16 (Neprilysin-like 16)", "dsRNA": "DRSC14650", "replicate 1, z-score of dpERK with insulin": 0.06, "replicate 2, z-score of dpERK with insulin": 0.02}
{"gene": "CG33489", "dsRNA": "DRSC10588", "replicate 1, z-score of dpERK with insulin": 0.34, "replicate 2, z-score of dpERK with insulin": 0}
{"gene": "CG9877", "dsRNA": "DRSC04587", "replicate 1, z-score of dpERK with insulin": -0.9, "replicate 2, z-score of dpERK with insulin": 0.17}
{"gene": "CG18538", "dsRNA": "DRSC06765", "replicate 1, z-score of dpERK with insulin": 0.37, "replicate 2, z-score of dpERK with insulin": 0.95}
{"gene": "CG4017", "dsRNA": "DRSC02733", "replicate 1, z-score of dpERK with insulin": -0.19, "replicate 2, z-score of dpERK with insulin": 0.12}
{"gene": "CG31729", "dsRNA": "DRSC02524", "replicate 1, z-score of dpERK with insulin": -0.24, "replicate 2, z-score of dpERK with insulin": 0.05}
{"gene": "CG31729", "dsRNA": "DRSC02946", "replicate 1, z-score of dpERK with insulin": -0.08, "replicate 2, z-score of dpERK with insulin": -0.46}
{"gene": "Kcmf1 (Potassium channel modulatory factor 1)", "dsRNA": "DRSC14459", "replicate 1, z-score of dpERK with insulin": -1, "replicate 2, z-score of dpERK with insulin": -0.93}
{"gene": "CG15676", "dsRNA": "DRSC04267", "replicate 1, z-score of dpERK with insulin": -0.48, "replicate 2, z-score of dpERK with insulin": -0.02}
{"gene": "CG1544", "dsRNA": "DRSC15036", "replicate 1, z-score of dpERK with insulin": -1.18, "replicate 2, z-score of dpERK with insulin": 0.62}
{"gene": "NT1 (Neurotrophin 1)", "dsRNA": "DRSC08530", "replicate 1, z-score of dpERK with insulin": -0.63, "replicate 2, z-score of dpERK with insulin": -0.34}
{"gene": "NT1 (Neurotrophin 1)", "dsRNA": "DRSC22895", "replicate 1, z-score of dpERK with insulin": -2.14, "replicate 2, z-score of dpERK with insulin": 0.31}
{"gene": "CG11726", "dsRNA": "DRSC09858", "replicate 1, z-score of dpERK with insulin": 0.17, "replicate 2, z-score of dpERK with insulin": 0.28}
{"gene": "Gas8 (Growth arrest specific protein 8)", "dsRNA": "DRSC22884", "replicate 1, z-score of dpERK with insulin": -0.58, "replicate 2, z-score of dpERK with insulin": 1.26}
{"gene": "fu (fused)", "dsRNA": "DRSC20333", "replicate 1, z-score of dpERK with insulin": -1.59, "replicate 2, z-score of dpERK with insulin": -3.28}
{"gene": "mh (maternal haploid)", "dsRNA": "DRSC20168", "replicate 1, z-score of dpERK with insulin": -0.75, "replicate 2, z-score of dpERK with insulin": -0.97}
{"gene": "Est-Q (Esterase Q)", "dsRNA": "DRSC11835", "replicate 1, z-score of dpERK with insulin": -0.1, "replicate 2, z-score of dpERK with insulin": 0.48}
{"gene": "Fmo-1 (Flavin-containing monooxygenase 1)", "dsRNA": "DRSC04328", "replicate 1, z-score of dpERK with insulin": 0.43, "replicate 2, z-score of dpERK with insulin": 0.11}
